Laboratory results reported in US9308183B2, “Therapy for hyperexcitability disorders” (UCB PHARMA GMBH, priority 2006, dated 2016).
For at least one compound, name, drawing or mass did not settle the structure.

System: 129SVEV mice
Experiment: Stress-induced hyperthermia (SIH) test, animal model for stress-induced anxiety
Format: in vivo, mouse
Conditions: 10 mg/kg i.p. 60 min prior to testing
Experimental: The room temperature was maintained between 20 and 23° C. with a relative humidity maintained between 30% and 70%.
On the day prior to testing, the mice were brought to the experimental room one hour before scheduled lights out and singly housed overnight with food and water ad libitum. […] The probe remained inside the animal for approximately 5 seconds or until body temperature reached stability. This temperature was recorded as the baseline rectal temperature (T1). […] Before each insertion, the rectal probe was cleaned with an alcohol pad and lubricated with sterile K-Y jelly.

CNC1=Nc2ccc(Cl)cc2C(c2ccccc2)=[N+]([O-])C1 [chlordiazepoxide, reference compound] was tested, and the “effect on SIH compared to saline” value was “significantly decreased”.
